Data: doi:10.1101/2020.01.22.915017
Results are given in words; binding and its absence hold for the method and conditions named. Binding calls can cover weak binding; strength is not graded here.

Target: MHC-II molecule I-A^b (mouse (endogenous in BMDCs))
Assay: flow cytometry on cells

binding: binds
Binder: ASFEAQGALANIAVDKA [Eα_(52-68) peptide]
